Results: publication PMC4770193
No constants are given. Whether binding was seen depends on the method and setting. Some entries that bind do so weakly or less than the wild type.

The chains behind the UniProt entries cited, without tags or fusion partners.
UniProt P04610: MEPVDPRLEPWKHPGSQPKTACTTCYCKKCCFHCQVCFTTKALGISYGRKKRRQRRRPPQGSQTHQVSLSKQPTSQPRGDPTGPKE
UniProt Q04759: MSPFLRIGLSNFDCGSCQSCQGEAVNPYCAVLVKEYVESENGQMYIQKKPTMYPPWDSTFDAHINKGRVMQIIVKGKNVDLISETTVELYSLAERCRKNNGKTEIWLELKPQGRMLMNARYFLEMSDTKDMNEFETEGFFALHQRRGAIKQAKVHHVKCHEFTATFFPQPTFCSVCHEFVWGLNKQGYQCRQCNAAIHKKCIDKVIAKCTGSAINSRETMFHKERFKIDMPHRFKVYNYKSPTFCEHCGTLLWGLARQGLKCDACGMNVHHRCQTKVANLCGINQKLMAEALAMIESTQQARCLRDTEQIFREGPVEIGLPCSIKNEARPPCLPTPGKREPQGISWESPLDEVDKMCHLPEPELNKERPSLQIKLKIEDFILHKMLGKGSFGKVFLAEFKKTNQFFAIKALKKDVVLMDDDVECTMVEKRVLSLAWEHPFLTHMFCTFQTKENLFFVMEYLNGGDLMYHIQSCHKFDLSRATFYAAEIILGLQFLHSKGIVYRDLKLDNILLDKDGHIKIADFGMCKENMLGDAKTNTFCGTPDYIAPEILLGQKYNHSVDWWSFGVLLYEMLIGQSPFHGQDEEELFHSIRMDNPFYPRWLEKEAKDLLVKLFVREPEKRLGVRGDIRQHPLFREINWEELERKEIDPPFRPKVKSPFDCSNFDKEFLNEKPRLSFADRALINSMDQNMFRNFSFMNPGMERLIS

Molecular target: HIV-1 Tat of strain NL4-3_wt in infected human PBLs (HIV-1) (UniProt P04610)
Experiment: sequential ChIP (re-ChIP); primary ChIP with an antibody against Tat, then secondary ChIP with an antibody against PKCθ; recovered DNA read by qPCR with primers spanning -39 to +66 of the HIV-1 LTR promoter (contains the TAR loop); Jurkat E6-1 cells transfected with HIV-1 clone, and human PBLs infected with NL4-3_wt for 3 days; N = 2

PKCθ (protein kinase C theta), endogenous in human peripheral blood lymphocytes (from UniProt Q04759 1-706) (enzyme)
binding: binds
